{"sequences": {"note": "The chains behind the UniProt entries cited, without tags or fusion partners. Residues count along the entry.", "UniProt P52948, residues 1-880": "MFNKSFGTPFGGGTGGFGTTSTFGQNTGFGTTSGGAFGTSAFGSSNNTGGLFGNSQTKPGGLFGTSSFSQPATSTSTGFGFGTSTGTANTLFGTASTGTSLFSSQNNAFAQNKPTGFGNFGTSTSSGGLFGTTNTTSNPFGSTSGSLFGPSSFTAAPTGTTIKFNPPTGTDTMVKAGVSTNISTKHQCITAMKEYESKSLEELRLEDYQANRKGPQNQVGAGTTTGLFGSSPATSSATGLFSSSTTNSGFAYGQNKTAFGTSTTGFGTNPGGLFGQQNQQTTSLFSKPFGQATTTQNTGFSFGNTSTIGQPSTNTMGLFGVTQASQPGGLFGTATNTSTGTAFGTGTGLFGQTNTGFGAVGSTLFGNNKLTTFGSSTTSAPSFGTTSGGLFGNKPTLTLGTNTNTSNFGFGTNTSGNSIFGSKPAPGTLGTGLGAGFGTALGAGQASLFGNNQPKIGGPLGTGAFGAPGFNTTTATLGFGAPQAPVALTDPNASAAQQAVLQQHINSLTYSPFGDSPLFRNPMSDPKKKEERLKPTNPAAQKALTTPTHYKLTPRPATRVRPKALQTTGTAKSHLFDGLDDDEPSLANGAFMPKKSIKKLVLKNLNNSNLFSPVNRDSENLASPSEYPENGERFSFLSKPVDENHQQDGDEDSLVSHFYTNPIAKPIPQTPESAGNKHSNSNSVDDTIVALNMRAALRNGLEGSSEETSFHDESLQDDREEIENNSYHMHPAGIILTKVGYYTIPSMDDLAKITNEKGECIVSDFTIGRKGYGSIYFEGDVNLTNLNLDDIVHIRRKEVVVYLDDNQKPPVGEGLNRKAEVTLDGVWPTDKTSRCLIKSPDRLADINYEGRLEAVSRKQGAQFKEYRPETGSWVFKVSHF", "UniProt P67809": "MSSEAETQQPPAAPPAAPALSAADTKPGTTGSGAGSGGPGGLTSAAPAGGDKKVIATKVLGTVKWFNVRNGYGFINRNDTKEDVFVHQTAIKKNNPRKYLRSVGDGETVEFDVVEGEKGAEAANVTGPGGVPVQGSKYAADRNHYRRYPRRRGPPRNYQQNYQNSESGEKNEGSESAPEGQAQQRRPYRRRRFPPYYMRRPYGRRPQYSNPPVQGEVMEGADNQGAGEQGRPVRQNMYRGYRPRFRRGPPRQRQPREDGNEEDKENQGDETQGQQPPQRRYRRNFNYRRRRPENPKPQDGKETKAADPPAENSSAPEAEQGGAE"}, "source": "paper doi:10.1101/2020.11.16.384271", "target": "endogenous NUP98 (Nucleoporin 98) (human (endogenous in HL-60)) (UniProt P52948)", "assay": "affinity purification with mass spectrometry", "note": "Results are given in words; binding and its absence hold for the method and conditions named. Binding seen in cells or lysates may run through a third protein. These calls come from enrichment with a bait or labelling near it, and not all partners need be listed."}
{"substance": "YBX1 (from UniProt P67809 1-324)", "values": [{"measurement": "binding", "result": "binds"}]}
